# These are yes or no findings as the source states them, for the method shown. Binding calls can cover weak binding; strength is not graded here.
# Target: T1, AtBIN2 (brassinosteroid-insensitive 2) in pGBKT7 (pGBKT7-AtBIN2) (Arabidopsis thaliana) (UniProt Q39011)
# T1 sequence: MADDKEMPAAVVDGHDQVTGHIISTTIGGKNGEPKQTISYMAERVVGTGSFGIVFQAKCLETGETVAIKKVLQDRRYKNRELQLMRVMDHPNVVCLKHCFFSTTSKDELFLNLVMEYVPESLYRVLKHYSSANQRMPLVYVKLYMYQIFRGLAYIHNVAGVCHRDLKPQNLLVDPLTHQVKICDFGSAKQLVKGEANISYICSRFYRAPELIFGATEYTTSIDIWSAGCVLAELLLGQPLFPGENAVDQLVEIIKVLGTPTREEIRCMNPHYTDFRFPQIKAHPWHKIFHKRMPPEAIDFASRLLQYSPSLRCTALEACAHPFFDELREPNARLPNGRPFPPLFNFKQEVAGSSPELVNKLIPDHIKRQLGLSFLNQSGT
# Assay: two-hybrid; yeast strain AH109 co-transformed with pGBKT7 and pGADT7 fusions; growth on dropout medium lacking tryptophan, leucine, histidine and adenine with 3-AT (15 mM in results and legend, 5 mM in methods) and X-α-Gal (blue colour)
substance,measurement,value
SPLCV-JS C4 protein in pGADT7 (pGADT7-C4),binding,binds
